{"source": "PubChem BioAssay AID1259424 (University of Nebraska Medical Center, 2018)", "purpose": "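Seek colon cancer survival genes behaving like KSR1, using a six-gene signature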 (primary screen)", "cell system": "human HCT116 colon cancer cells", "reagent": "siRNA pool against human genes, 50 nM", "measured": "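Six signature mRNAs by branched-DNA multiplex assay, scaled to two housekeeping genes and non-targeting median, log2; matched to mean KSR1 knockdown profile by Pearson correlation and euclidean distance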", "direction": "mean correlation with KSR1 profile: higher = expression change more like KSR1 knockdown", "note": "The deposit covers about 14,000 reagents; this is a part drawn at random. 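Higher correlation or smaller distance means closer resemblance to KSR1 loss; control wells, including KSR1 knockdowns, recur on many plates.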 Further read-outs or replicates are left out here. Not given: the time to read-out."}
{"gene symbol": "SPANXA2", "mean correlation with KSR1 profile": 0.17}
{"gene symbol": "GALNT16", "mean correlation with KSR1 profile": -0.411}
{"gene symbol": "SIGLEC6", "mean correlation with KSR1 profile": -0.215}
{"gene symbol": "DIO1", "mean correlation with KSR1 profile": -0.252}
{"gene symbol": "MIP", "mean correlation with KSR1 profile": 0.349}
{"gene symbol": "SPP1", "mean correlation with KSR1 profile": 0.0828}
{"gene symbol": "BLCAP", "mean correlation with KSR1 profile": 0.288}
{"gene symbol": "HS1BP3", "mean correlation with KSR1 profile": -0.309}
{"gene symbol": "KRTAP4-9", "mean correlation with KSR1 profile": 0.0521}
{"gene symbol": "TMEM135", "mean correlation with KSR1 profile": 0.547}
{"gene symbol": "DRC7", "mean correlation with KSR1 profile": 0.731}
{"gene symbol": "MT2A", "mean correlation with KSR1 profile": 0.605}
{"gene symbol": "HOXC4", "mean correlation with KSR1 profile": -0.3}
{"gene symbol": "CLDN3", "mean correlation with KSR1 profile": 0.0692}
{"gene symbol": "RRS1", "mean correlation with KSR1 profile": 0.289}
{"gene symbol": "PMS2P5", "mean correlation with KSR1 profile": 0.374}
{"gene symbol": "PIDD1", "mean correlation with KSR1 profile": -0.12}
{"gene symbol": "GIP", "mean correlation with KSR1 profile": 0.46}
{"gene symbol": "CLRN1", "mean correlation with KSR1 profile": -0.0497}
